# Experimental data: the supplement of paper PMC10338343
# ± gives the standard deviation. This is a selection; strong and weak results do not stand in their true shares. Many entries were measured with a wide error.
# Tested on: MILI (PIWIL2) piRISC loaded with piRNA #1 (26 nt)
# Assay: pre-steady-state target cleavage rate (min^-1); MIWI and MILI are mouse PIWI proteins and EfPiwi is from a freshwater sponge; tags in brackets are library labels; higher = faster piRNA-guided slicing of the target
# Conditions: guide: piRNA #1 5'p-UGAGGUAGUAGGUUGUAUAGUAUCCA; auxiliary factor: 500 nM mouse GTSF1
# How it was run: (§1)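 In HEPES–potassium acetate buffer at 33 °C, […] transcribed, DNA-blocked target RNA library was mixed with 1 nM active affinity-purified piRISC carrying one synthetic guide, with or without 500 nM GTSF1 partner protein, for 0–8 or 0–960 min. Uncleaved targets were sequenced and normalised to depth and to weakly complementary targets; three trials were pooled and k3 was capped at 0.0001 min^-1. The pre-steady-state cleavage rate followed from a burst-and-steady-state fit.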
# 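Note: 1 nM active piRISC with 0.1 nM target library at 33 °C single turnover.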
row,Sequence,pre-steady-state target cleavage rate
1,GGAGACCUAUGAUUACUACCUACUACCUGA,0.00141 ± 0.0045
2,GGAGACCUAUGAUAUGUUGCUCACUACCUCA,0.000285 ± 0.015
3,GGAGACCUAUGAUAUGUUGGUACUACAUCA,0.000384 ± 0.0098
4,GGAGACCUAUGAUAUCAAGCUUCUACCUCA,0.00143 ± 0.0048
5,GGAGACCUAUGAUAUGUAGGUACUACCUCA,0.000341 ± 0.011
6,GGAGACCUAUGAUAUCAACCUAAUACCUCA,0.00128 ± 0.0047
7,GGAGACCUAUGAUAACAACCUACUAUCUCA,0.00246 ± 0.0027
8,GGAGACCUAUGAUUACAACCAACUUCCUCA,0.00254 ± 0.0035
9,GGAGACCUAUGUAUUCAACCUAGUACCUCA,0.00409 ± 0.0042
10,GGAGACCUAUGAUAUGUUGGUACUACCACA,0.000341 ± 0.013
11,GGAGACCUAUGAUAUGUUGUUACUACCUCA,0.000288 ± 0.016
12,GGAGACCUAACUAUACAUGGUACUACCUCA,0.00174 ± 0.0088
13,GGAGACCUAUGAUAUCAACCUUCUACCACA,0.000228 ± 0.014
14,GGAGUGGAUACUAUACAACCUACAACGUCA,0.000949 ± 0.0044
15,GGAGACCUAUGAUAUCAACCAACUACCACA,0.000212 ± 0.018
16,GGAGACCUAUGAUUACAACGUACAACCUCA,0.00532 ± 0.0027
17,GGAGACCUAUGAUAUGUUGCUAACUACCUCA,0.000699 ± 0.0077
18,GGAGACCUAACUAUACAACCAAGUACCUCA,0.00119 ± 0.012
19,GGAGACCUAACUAUACAACCAACAACCUCA,0.00126 ± 0.011
20,GGAGACCUAUGAUAUCAACUACUACCUCA,0.000242 ± 0.01

row,Sequence,pre-steady-state target cleavage rate
1,GGAGACCUAUGAUAUGUUGGUACCUACCUCA,0.000335 ± 0.016
2,GGAGACCUAUGAUAACAACGUACUUCCUCA,0.000996 ± 0.007
3,GGAGACCUAUGAUUACAAUCUACUACCUCA,0.00319 ± 0.0026
4,GGAGACCUAUGAUUACAACCUUACUACCUCA,0.00155 ± 0.004
5,GGAGACCUAUGAUAUUAACCUACUACCUCA,0.000603 ± 0.0081
6,GGAGACCUAUGAUAACAACCAACUACCUGA,0.00128 ± 0.0041
7,GGAGACCUAUGAUUACAACCCUACUACCUCA,0.000815 ± 0.0052
8,GGAGACCUAUGAUAACAACCUACUACCACA,0.0018 ± 0.0044
9,GGAGACCUAUGAUAUCAUCCAACUACCUCA,0.000447 ± 0.0077
10,GGAGACCUAUCUAUACAACCUUGAUGGAGA [g10:g20:cont:t1A],0.000568 ± 0.0095
11,GGAGACCUAUGUAUACAACCUACUUCCUGA,0.00819 ± 0.0021
12,GGAGACCUAUGAAUACAACCUUCUAGCUCA,0.000403 ± 0.0081
13,GGAGACCUAUGAUAACAACCAACUACCUCA,0.00165 ± 0.0045
14,GGAGACCUAUGAUAUGUUGCUACUUACCUCA,0.000395 ± 0.012
15,GGAGAGGAUACUAUACAACCUUGAACCUCA,0.000176 ± 0.021
16,GGAGACCUAUGAUUACAACCAACUAGCUCA,0.00232 ± 0.003
17,GGAGUGGAUACUAUACAACCUCACUACCUCA,0.00285 ± 0.003
18,GGAGACCUAUGAAUACAUGCUACUACCUCA,0.00268 ± 0.0026
19,GGAGACCUAUGAUUCACAACCUACUACCUCA,0.00321 ± 0.0032
20,GGAGACCUAUGAUUAGUUCCUACUACCUCA,0.0002 ± 0.013

# Tested on: MIWI (PIWIL1) piRISC loaded with piRNA #1 (30 nt)
# Assay: as above
# Conditions: guide: piRNA #1 5'p-UGAGGUAGUAGGUUGUAUAGUAUCCAGAGG; auxiliary factor: 500 nM mouse GTSF1
# How it was run: as §1
row,Sequence,pre-steady-state target cleavage rate
1,GGAGACCUAUGAUUACUACCUACUACCUGA,0.000226 ± 0.0078
2,GGAGACCUAUGAUAUGUUGCUCACUACCUCA,0.00246 ± 0.0017
3,GGAGACCUAUGAUAUGUUGGUACUACAUCA,0.000383 ± 0.0095
4,GGAGACCUAUGAUAUCAAGCUUCUACCUCA,0.000239 ± 0.01
5,GGAGACCUAUGAUAUGUAGGUACUACCUCA,0.000446 ± 0.0094
6,GGAGACCUAUGAUAUCAACCUAAUACCUCA,0.000273 ± 0.0074
7,GGAGACCUAUGAUAACAACCUACUAUCUCA,0.000248 ± 0.0077
8,GGAGACCUAUGAUUACAACCAACUUCCUCA,0.000427 ± 0.0052
9,GGAGACCUAUGUAUUCAACCUAGUACCUCA,0.00113 ± 0.0053
10,GGAGACCUAUGAUAUGUUGGUACUACCACA,0.000543 ± 0.0073
11,GGAGACCUAUGAUAUGUUGUUACUACCUCA,0.0013 ± 0.0041
12,GGAGACCUAACUAUACAUGGUACUACCUCA,0.00061 ± 0.013
13,GGAGACCUAUGAUAUCAACCUUCUACCACA,0.000167 ± 0.014
14,GGAGUGGAUACUAUACAACCUACAACGUCA,0.0012 ± 0.0032
15,GGAGACCUAUGAUAUCAACCAACUACCACA,0.00013 ± 0.023
16,GGAGACCUAUGAUUACAACGUACAACCUCA,0.000297 ± 0.007
17,GGAGACCUAUGAUAUGUUGCUAACUACCUCA,0.00155 ± 0.0042
18,GGAGACCUAACUAUACAACCAAGUACCUCA,0.000588 ± 0.011
19,GGAGACCUAACUAUACAACCAACAACCUCA,0.000233 ± 0.028
20,GGAGACCUAUGAUAUCAACUACUACCUCA,0.000105 ± 0.016

row,Sequence,pre-steady-state target cleavage rate
1,GGAGACCUAUGAUAUGUUGGUACCUACCUCA,0.000239 ± 0.016
2,GGAGACCUAUGAUAACAACGUACUUCCUCA,0.000416 ± 0.012
3,GGAGACCUAUGAUUACAAUCUACUACCUCA,0.00077 ± 0.0059
4,GGAGACCUAUGAUUACAACCUUACUACCUCA,0.000235 ± 0.0076
5,GGAGACCUAUGAUAUUAACCUACUACCUCA,0.00013 ± 0.02
6,GGAGACCUAUGAUAACAACCAACUACCUGA,0.000304 ± 0.0048
7,GGAGACCUAUGAUUACAACCCUACUACCUCA,0.000232 ± 0.0065
8,GGAGACCUAUGAUAACAACCUACUACCACA,0.000255 ± 0.011
9,GGAGACCUAUGAUAUCAUCCAACUACCUCA,0.000509 ± 0.0089
10,GGAGACCUAUCUAUACAACCUUGAUGGAGA [g10:g20:cont:t1A],0.000913 ± 0.0082
11,GGAGACCUAUGUAUACAACCUACUUCCUGA,0.00103 ± 0.0039
12,GGAGACCUAUGAAUACAACCUUCUAGCUCA,0.000165 ± 0.014
13,GGAGACCUAUGAUAACAACCAACUACCUCA,0.000105 ± 0.027
14,GGAGACCUAUGAUAUGUUGCUACUUACCUCA,0.000447 ± 0.0087
15,GGAGAGGAUACUAUACAACCUUGAACCUCA,0.000752 ± 0.004
16,GGAGACCUAUGAUUACAACCAACUAGCUCA,0.000259 ± 0.0068
17,GGAGUGGAUACUAUACAACCUCACUACCUCA,0.00226 ± 0.0032
18,GGAGACCUAUGAAUACAUGCUACUACCUCA,0.000114 ± 0.02
19,GGAGACCUAUGAUUCACAACCUACUACCUCA,0.0011 ± 0.0066
20,GGAGACCUAUGAUUAGUUCCUACUACCUCA,0.000797 ± 0.0055
